Measured values: patent US20240124586A1
These are yes or no findings as the source states them, for the method shown. Some binding calls cover weakened binding; strength is not graded here.

Chains of the proteins cited; added tags and fusions are not shown. Lines headed by an entry give the natural chain unless they say otherwise; changes in a name come on top. Residues count along the entry.
UniProt P15391, residues 20-556: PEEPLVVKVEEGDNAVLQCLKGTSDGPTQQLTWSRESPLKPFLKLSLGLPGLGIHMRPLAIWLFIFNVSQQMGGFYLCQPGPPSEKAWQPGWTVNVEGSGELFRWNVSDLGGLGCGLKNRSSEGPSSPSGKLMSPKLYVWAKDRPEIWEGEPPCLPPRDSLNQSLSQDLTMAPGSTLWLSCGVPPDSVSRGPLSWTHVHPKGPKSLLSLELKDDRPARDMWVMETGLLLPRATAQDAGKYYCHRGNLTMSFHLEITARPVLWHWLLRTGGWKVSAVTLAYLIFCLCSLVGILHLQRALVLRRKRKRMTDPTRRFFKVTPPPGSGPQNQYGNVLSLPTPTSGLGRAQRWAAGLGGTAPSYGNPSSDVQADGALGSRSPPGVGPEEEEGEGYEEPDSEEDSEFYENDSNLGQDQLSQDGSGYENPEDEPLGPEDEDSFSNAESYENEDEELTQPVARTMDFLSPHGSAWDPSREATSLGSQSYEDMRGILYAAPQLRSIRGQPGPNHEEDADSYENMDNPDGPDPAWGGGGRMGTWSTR
UniProt P16410, residues 36-223: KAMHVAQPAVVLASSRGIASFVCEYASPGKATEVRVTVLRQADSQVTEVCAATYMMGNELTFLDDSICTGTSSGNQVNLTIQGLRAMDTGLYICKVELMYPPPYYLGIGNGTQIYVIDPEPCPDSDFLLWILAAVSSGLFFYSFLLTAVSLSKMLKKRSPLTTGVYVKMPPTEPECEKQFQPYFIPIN
UniProt Q15116, residues 25-288: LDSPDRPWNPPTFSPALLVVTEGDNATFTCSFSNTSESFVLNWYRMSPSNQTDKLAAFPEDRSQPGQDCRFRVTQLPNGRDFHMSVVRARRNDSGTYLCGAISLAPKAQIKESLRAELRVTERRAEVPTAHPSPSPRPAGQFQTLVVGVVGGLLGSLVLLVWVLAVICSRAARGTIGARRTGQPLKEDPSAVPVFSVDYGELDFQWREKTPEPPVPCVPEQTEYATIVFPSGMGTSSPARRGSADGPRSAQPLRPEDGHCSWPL

Experiments:
[1] = molecular target: human CD19 on CD19+ B cell lines (Ramos, Raji) (human) (UniProt P15391); assay: FACS binding to Ramos cells after 0, 1, 4, 7 and 14 days in human serum at 37 C
[2] = molecular target: human CD19 on CD19+ B cell lines (Ramos, Raji) (human) (UniProt P15391); assay: FACS on CD19+ Ramos cells
[3] = molecular target: human CTLA-4 on engineered 293F cells (W316-293F.hPro1.FL) (human) (UniProt P16410); assay: FACS on human CTLA-4 engineered cells
[4] = molecular target: human PD-1 on engineered CHO-S cells (W305-CHO-S.hPro1.C6) (human) (UniProt Q15116); assay: FACS on human PD-1 engineered cells

Binder | binding [1] | binding [2] | binding [3] | binding [4]
W3438-T3U4.E17-1.uIgG4.SP, bispecific anti-CD3 x CD19 (bispecific antibody) heavy 1: QVQLVQSGAEVKKPGSSVKVSCKASGFAFTDYYIHWVRQAPGQGLEWMGWISPGNVNTKYNENFKGRVTITADKSTSTAYMELSSLRSEDTAVYYCARDGYSLYYFDYWGQGTLVTVLEDLKNVFPPEVAVFEPSEAEISHTQKATLVCLATGFYPDHVELSWWVNGKEVHSGVCTDPQPLKEQPALQDSRYALSSRLRVSATFWQNPRNHFRCQVQFYGLSENDEWTQDRAKPVTQIVSAEAWGRYGPPCPPCPAPEFLGGPSVFLFPPKPKDTLMISRTPEVTCVVVDVSQEDPEVQFNWYVDGVEVHNAKTKPREEQFNSTYRVVSVLTVLHQDWLNGKEYKCKVSNKGLPSSIEKTISKAKGQPREPQVYTLPPCQEEMTKNQVSLWCLVKGFYPSDIAVEWESNGQPENNYKTTPPVLDSDGSFFLYSRLTVDKSRWQEGNVFSCSVMHEALHNHYTQKSLSLSLGK light 1: DIVMTQSPDSLAVSLGERATINCKSSQSLLNSRTRKNYLAWYQQKPGQPPKLLIYWASTRQSGVPDRFSGSGSGTDFTLTISSLQAEDVAVYYCTQSHTLRTFGGGTKVEIKPDIQNPDPAVYQLRDSKSSDKSVCLFTDFDSQTQVSQSKDSDVYITDKCVLDMRSMDFKSNSAVAWSQKSDFACANAFQNSIIPEDTFFPSPESS heavy 2: QMQLVQSGPEVKKPGTSVKVSCKASGYAFTSYNMYWVRQARGQRLEWIGYIDPYNGDTTYNQKFKGRVTITRDMSTSTAYMELSSLRSEDTAVYYCLTTAYAMDYWGQGTLVTVSSASTKGPSVFPLAPCSRSTSESTAALGCLVKDYFPEPVTVSWNSGALTSGVHTFPAVLQSSGLYSLSSVVTVPSSSLGTKTYTCNVDHKPSNTKVDKRVESKYGPPCPPCPAPEFLGGPSVFLFPPKPKDTLMISRTPEVTCVVVDVSQEDPEVQFNWYVDGVEVHNAKTKPREEQFNSTYRVVSVLTVLHQDWLNGKEYKCKVSNKGLPSSIEKTISKAKGQPREPQVCTLPPSQEEMTKNQVSLSCAVKGFYPSDIAVEWESNGQPENNYKTTPPVLDSDGSFFLVSRLTVDKSRWQEGNVFSCSVMHEALHNHYTQKSLSLSLGK light 2: DIQLTQSPSFLSASVGDRVTITCSASSTVNYMHWYQQKPGKAPKLLIYSTSNLASGVPSRFSGSGSGTEFTLTISSLQPEDFATYYCHQWSSYPYTFGQGTKLEIKRTVAAPSVFIFPPSDEQLKSGTASVVCLLNNFYPREAKVQWKVDNALQSGNSQESVTEQDSKDSTYSLSSTLTLSKADYEKHKVYACEVTHQGLSSPVTKSFNRGEC | binds | binds |  | 
U6T5.G19R.IgG4, bispecific anti-PD-1 x CTLA-4 (bispecific antibody) heavy: EVQLLESGGGLVQPGGSLRLSCAASGFTFSSHAMSWVRQAPGKGLEWVSTITGGGGSIYYADSVKGRFTISRDNSKNTLYLQMNSLRAEDTAVYYCAKNRAGEGYFDYWGQGTLVTVLEDLKNVFPPEVAVFEPSEAEISHTQKATLVCLATGFYPDHVELSWWVNGKEVHSGVCTDPQPLKEQPALQDSRYALSSRLRVSATFWQNPRNHFRCQVQFYGLSENDEWTQDRAKPVTQIVSAEAWGRYGPPCPPCPAPEFLGGPSVFLFPPKPKDTLMISRTPEVTCVVVDVSQEDPEVQFNWYVDGVEVHNAKTKPREEQFNSTYRVVSVLTVLHQDWLNGKEYKCKVSNKGLPSSIEKTISKAKGQPREPQVYTLPPSQEEMTKNQVSLTCLVKGFYPSDIAVEWESNGQPENNYKTTPPVLDSDGSFFLYSRLTVDKSRWQEGNVFSCSVMHEALHNHYTQKSLSLSLGGGGGSGGGGSGGGGSGGGGSQVQLVQSGAEVKKPGSSVKVSCKASGYTFTNYFMNWVRQAPGQGLEWMGRVDPEQGRADYAEKFKKRVTITADKSTSTAYMELSSLRSEDTAVYYCARRAMDNYGFAYWGQGTLVTVSSASTKGPSVFPLAPCSRSTSESTAALGCLVKDYFPEPVTVSWNSGALTSGVHTFPAVLQSSGLYSLSSVVTVPSSSLGTKTYTCNVDHKPSNTKVDKRV light 1: SYELTQPLSVSVALGQTARITCGGDNIGNKDVHWYQQKPGQAPVLVIYRDSNRPSGIPEGFSGSNSGNTATLTISRAQAGDEADYYCQVWDSIWVFGGGTKLTVLPDIQNPDPAVYQLRDSKSSDKSVCLFTDFDSQTQVSQSKDSDVYITDKCVLDMRSMDFKSNSAVAWSQKSDFACANAFQNSIIPEDTFFPSPESS light 2: EIVLTQSPDFQSVTPKEKVTITCSANSALSYMYWYQQKPDQSPKLWVHGTSNLASGVPSRFSGSGSGTDFTLTINSLEAEDAATYYCHHWSNTQWTFGGGTKVEIKRTVAAPSVFIFPPSDEQLKSGTASVVCLLNNFYPREAKVQWKVDNALQSGNSQESVTEQDSKDSTYSLSSTLTLSKADYEKHKVYACEVTHQGLSSPVTKSFNRGEC |  |  | binds | binds
